Results as given in PubChem BioAssay (EPA / NIEHS).
Values joined by “and” are separate entries in the source; they are usually repeats but may differ in a detail not shown here. Equal values may be shown once. This list was built around the results that the source calls inconclusive (neither active nor inactive); the mix of calls is not that of the screen. For some of these results: A potency beside an inconclusive call is a rough fit, not a confirmed value. Active and inactive are the calls of the source. Rule for the calls: active = hit-call score of the fitted dose curve at least 0.9, where 1 is the maximum; inconclusive = response in the unintended direction; inactive = score below 0.9.

Amino acid sequences for entries named in this document (tags omitted). A change or cut given only in a name is not applied to a line headed by its entry.
UniProt P08684, whole entry, looked up: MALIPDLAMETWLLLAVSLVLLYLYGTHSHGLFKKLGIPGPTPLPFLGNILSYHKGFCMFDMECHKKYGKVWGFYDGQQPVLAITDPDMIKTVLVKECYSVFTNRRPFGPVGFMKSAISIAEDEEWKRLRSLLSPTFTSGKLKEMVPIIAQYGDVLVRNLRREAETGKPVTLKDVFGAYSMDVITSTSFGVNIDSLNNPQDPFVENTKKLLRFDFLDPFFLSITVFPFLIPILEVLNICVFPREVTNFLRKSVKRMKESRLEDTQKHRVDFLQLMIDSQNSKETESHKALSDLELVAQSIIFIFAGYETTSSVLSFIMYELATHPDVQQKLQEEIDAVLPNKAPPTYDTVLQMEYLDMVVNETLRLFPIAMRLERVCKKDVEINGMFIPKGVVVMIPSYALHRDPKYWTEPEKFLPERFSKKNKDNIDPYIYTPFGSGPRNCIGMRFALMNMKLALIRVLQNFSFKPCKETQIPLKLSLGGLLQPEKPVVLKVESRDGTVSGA
UniProt Q14790: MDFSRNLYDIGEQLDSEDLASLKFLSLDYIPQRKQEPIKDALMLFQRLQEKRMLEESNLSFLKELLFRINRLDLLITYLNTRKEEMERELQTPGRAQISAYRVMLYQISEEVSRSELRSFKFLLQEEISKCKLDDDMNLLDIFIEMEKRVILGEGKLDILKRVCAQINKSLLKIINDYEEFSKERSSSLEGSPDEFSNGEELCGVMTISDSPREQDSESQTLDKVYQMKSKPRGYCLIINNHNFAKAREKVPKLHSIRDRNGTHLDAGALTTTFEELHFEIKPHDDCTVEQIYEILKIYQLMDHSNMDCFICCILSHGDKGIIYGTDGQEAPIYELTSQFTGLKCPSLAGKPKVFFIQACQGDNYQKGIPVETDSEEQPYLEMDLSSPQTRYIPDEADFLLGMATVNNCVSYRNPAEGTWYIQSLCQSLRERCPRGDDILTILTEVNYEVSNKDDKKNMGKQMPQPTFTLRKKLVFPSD
UniProt P49146, whole entry, looked up: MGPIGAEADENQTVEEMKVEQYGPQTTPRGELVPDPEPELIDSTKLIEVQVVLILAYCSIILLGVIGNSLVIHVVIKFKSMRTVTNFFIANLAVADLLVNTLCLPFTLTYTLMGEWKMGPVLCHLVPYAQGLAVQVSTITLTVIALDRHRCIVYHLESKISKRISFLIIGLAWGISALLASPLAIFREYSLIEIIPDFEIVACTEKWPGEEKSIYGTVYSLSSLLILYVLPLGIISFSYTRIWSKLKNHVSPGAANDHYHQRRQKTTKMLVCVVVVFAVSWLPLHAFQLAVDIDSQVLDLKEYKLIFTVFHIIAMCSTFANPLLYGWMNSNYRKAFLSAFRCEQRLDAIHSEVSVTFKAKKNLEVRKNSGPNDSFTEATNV
UniProt Q96RI1: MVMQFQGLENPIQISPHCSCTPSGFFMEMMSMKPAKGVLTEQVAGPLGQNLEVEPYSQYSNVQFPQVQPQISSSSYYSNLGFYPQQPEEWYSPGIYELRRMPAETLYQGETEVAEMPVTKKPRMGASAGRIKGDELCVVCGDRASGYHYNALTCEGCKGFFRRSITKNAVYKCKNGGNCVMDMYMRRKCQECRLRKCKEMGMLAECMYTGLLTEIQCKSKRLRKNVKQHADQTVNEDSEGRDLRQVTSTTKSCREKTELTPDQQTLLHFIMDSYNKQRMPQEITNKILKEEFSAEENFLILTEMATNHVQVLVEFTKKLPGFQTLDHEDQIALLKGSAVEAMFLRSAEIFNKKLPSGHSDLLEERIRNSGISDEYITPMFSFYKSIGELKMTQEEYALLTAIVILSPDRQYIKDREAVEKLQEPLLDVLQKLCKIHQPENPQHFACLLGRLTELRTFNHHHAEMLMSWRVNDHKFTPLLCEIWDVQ
UniProt P51878: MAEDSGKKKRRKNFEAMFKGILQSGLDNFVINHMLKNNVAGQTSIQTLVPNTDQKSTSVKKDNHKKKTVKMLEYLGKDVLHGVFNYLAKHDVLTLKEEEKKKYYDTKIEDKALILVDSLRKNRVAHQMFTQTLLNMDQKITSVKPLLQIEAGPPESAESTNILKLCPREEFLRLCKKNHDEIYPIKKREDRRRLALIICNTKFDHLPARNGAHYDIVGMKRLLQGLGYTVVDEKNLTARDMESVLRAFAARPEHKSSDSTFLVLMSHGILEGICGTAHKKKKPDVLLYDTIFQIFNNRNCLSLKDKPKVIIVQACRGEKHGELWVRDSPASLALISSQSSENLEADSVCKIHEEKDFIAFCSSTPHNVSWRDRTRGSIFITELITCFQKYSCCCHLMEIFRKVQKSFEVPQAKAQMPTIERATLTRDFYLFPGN

Experiments:
[1] = test system: guinea pig Histamine Receptor (H2), gene 100729734; experiment: NVS_GPCR_gH2: NovaScreen (NVS) G Protein-Coupled Receptor Assay for guinea pig Histamine Receptor (H2) (AID 2283342)
How it was run: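 Guinea pig striatal membrane preparation with specific radioligand; bound counts measured by filtration and scintillation 1 h post-dosing, DMSO as baseline. Chemicals passing a 25 uM duplicate screen were titrated to a 50 uM maximum.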

[2] = target: Cytochrome P450 3A4 (Homo sapiens) (UniProt P08684); experiment: NVS_ADME_hCYP3A4: NovaScreen (NVS) CYP450-related Enzyme Activity (ADME) Assay for human CYP3A4 (AID 2283110)
How it was run: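 Compounds screened in duplicate at 10 uM, with follow-up concentration-response for actives, against insect-cell-expressed recombinant enzyme. Activity read by fluorescence 0.33 h after dosing; loss of signal versus acetonitrile control indicates inhibition.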

[3] = target: human Caspase 8 (CASP8), CASP8 (gene 841) (UniProt Q14790); experiment: NVS_ENZ_hCASP8: NovaScreen (NVS) Enzymatic Assay for human Caspase 8 (CASP8) (AID 2283146)
How it was run: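 The primary screen tested compounds in duplicate at a single 25 uM concentration, with actives followed up in concentration series. Activity of recombinant (E. coli) protease was measured by fluorescence 1 h post-dose, as signal loss against DMSO.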

[4] = target: Neuropeptide Y receptor type 2 (Homo sapiens) (UniProt P49146); experiment: NVS_GPCR_hNPY2: NovaScreen (NVS) G Protein-Coupled Receptor Assay for human Neuropeptide Receptor Y2 (NPY2) (AID 2283277)
How it was run: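 Chemicals were first tested in duplicate at 25 uM, then actives in singleton concentration series to 50 uM. Tracer binding to SK-N-MC-derived protein measured cell-free after 1 h via filter scintillation; signal loss relative to DMSO.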

[5] = target: Bile acid receptor (Homo sapiens) (UniProt Q96RI1); experiment: NVS_NR_hFXR_Antagonist: NovaScreen (NVS) Nuclear Receptor Binding Assay for human Farnesoid X Receptor Antagonism (FXR) (AID 2283350)
How it was run: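 Antagonist-format time-resolved FRET binding assay with extracted human receptor protein, read 1 hour after compound addition. Compounds first screened at 25 uM in duplicate, then actives tested in concentration series, with loss of signal relative to DMSO.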

[6] = ArunA_CellTiter_hNC: Viability Assessment in the ArunA Biomedical's Oris Neural Crest (hNC) Cell Migration Assay (AID 2283752)
How it was run: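 hNC cells (H9 ESC-derived), 60,000/well, Matrigel, LIF + bFGF medium; 16 h 37C attachment; 72 h compound in test medium; CellTiter Aqueous One read-out; loss-of-signal vs DMSO baseline.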

[7] = ArunA_CellTiter_hNP: Viability Assessment in the ArunA Biomedical's Oris Neural Crest (hNC) Cell Migration Assay (AID 2283753)
How it was run: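 Viability read with CellTiter 96 Aqueous One after 72 h chemical exposure of human hNP1 neuroprogenitors, which were plated on Matrigel in LIF/bFGF medium 16 h beforehand. Endpoint fitted in positive direction relative to DMSO.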

[8] = ArunA_Migration_hNP: ArunA Biomedical's Oris Neuroprogenitor (hNP) Cell Migration Assay (AID 2283754)
How it was run: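 Readout is calcein-AM fluorescence (ex494/em517) of cells migrating into the detection zone, relative to DMSO. hNP1 cells (H9-derived) grown on Matrigel behind stoppers 16 h, then stoppers pulled and chemical applied 72 h; cytochalasin D as control.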

[9] = ArunA_NOG_BranchPointsPerNeurite: ArunA Biomedical's Neurite Outgrowth (NOG) Assay for Branch Points Per Neurite (AID 2283759)
How it was run: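 Automated image analysis traced neurites (processes >10 um) from valid cell bodies after Hoechst and βIII-tubulin staining. hNN cells from H9 embryonic stem cells, 48 h exposure. Fitted bidirectionally against DMSO.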

[10] = VALA_TUBHUV_Antagonist_CellCount: Viability Assessment in the VALA Sciences human Umbilical Vein Endothelial Tubule Formation (TUBHUV) Antagonism Assay (AID 2284310)
How it was run: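 Read-out is imaged cell count after nuclear and CD31 staining, fitted against 0.1% DMSO vehicle. Compounds were added for 3 days, in 10 ng/ml VEGF assay medium, to HUVEC–HDF co-cultures pre-grown 3 days.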

[11] = VALA_TUBIPS_Agonist_TubuleLength: VALA Sciences human iPS-derived Endothelial Tubule Formation (TUBIPS) Agonism Assay (AID 2284311)
How it was run: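 Agonist-mode readout is the gain in imaged tubule length versus DMSO baseline. It was measured by fluorescence high-content imaging 72 h after dosing human iPSC-derived endothelial cells.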

[12] = VALA_TUBIPS_Antagonist_TubuleLength: VALA Sciences human iPS-derived Endothelial Tubule Formation (TUBIPS) Antagonist Assay (AID 2284313)
How it was run: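 Tubule length was quantified by high-content imaging of CD31- and nuclear-stained cells, with 0.1% DMSO as neutral and 100 uM suramin as inhibition control. Compounds were applied for 3 days, in 10 ng/ml VEGF, to cultures pre-grown 3 days.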

[13] = VALA_MIGHUV2_CellCount: Viability Assessment in the VALA Sciences human Umbilical Vein Endothelial Cell Migration (MIGHUV) Assay, Area of Scratch Wound after Recovery (AID 2284314)
How it was run: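 Viability read-out: Hoechst-stained nuclei counted by fluorescence imaging after a 24 h recovery period in fixed, scratched HUVEC plates. Compound was dosed within 30 min of scratching at six concentrations (triplicate); DMSO at 0.1 % served as baseline.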

[14] = VALA_MIGHUV2_Bcatenin: VALA Sciences human Umbilical Vein Endothelial Cell Migration (MIGHUV) Assay, Nuclear Translocation of beta-Catenin after Recovery (AID 2284315)
How it was run: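 Nuclear beta-catenin imaged by immunofluorescence with Hoechst counterstain in fixed HUVEC, 24 h after scratch wounding and chemical addition. Six-point concentration-response in triplicate; activity scored as signal increase over 0.1% DMSO vehicle.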

[15] = VALA_TUBHUV_Antagonist_TubuleLength: VALA Sciences human Umbilical Vein Endothelial Tubule Formation (TUBHUV) Antagonism Assay (AID 2284325)
How it was run: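 Tubule length was imaged via CD31 immunofluorescence after a further 3-day compound exposure in 10 ng/ml VEGF, following 3-day pre-culture of HUVEC with HDF at 1:3. Vehicle 0.1% DMSO; suramin (100 uM) inhibition control.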

[16] = VALA_MIGHUV1_ScratchOnly_CellCount: Viability Assessment in the VALA Sciences human Umbilical Vein Endothelial Cell Migration (MIGHUV) Assay, Scratch Wound Inhibited Recovery (AID 2284327)
How it was run: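 Hoechst-stained nuclei in the scratch wound were counted by high-content imaging after a 24 h recovery period. Scratched HUVEC monolayers received 6-point concentration series, triplicate, in 0.1% DMSO, fit against DMSO.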

[17] = VALA_TUBIPS_Antagonist_CellCount: Viability Assessment in the VALA Sciences human iPS-derived Endothelial Tubule Formation (TUBIPS) Antagonism Assay (AID 2284335)
[18] = VALA_MIGHUV1_ScratchOnly_WoundArea: VALA Sciences human Umbilical Vein Endothelial Cell Migration (MIGHUV) Assay, Area of Scratch Wound Inhibited Recovery (AID 2284336)
How it was run: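 Wound area remaining after 24 h recovery imaged by Hoechst nuclear fluorescence in scratched HUVEC cultures, chemicals added within 30 min of scratching across a 6-point series. Gain of signal fitted against 0.1% DMSO; cytochalasin D positive control.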

[19] = target: human Caspase 5 (CASP5), CASP5 (gene 838) (UniProt P51878); experiment: NVS_ENZ_hCASP5: NovaScreen (NVS) Enzymatic Assay for human Caspase 5 (CASP5) (AID 2283137)
How it was run: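 Fluorescent substrate readout of CASP5 activity (loss-of-signal), measured 2 h post-dose. Protein expressed in E. coli. Primary screen duplicate at 25 uM; actives meeting threshold (e.g., 30% inhibition) rerun singleton, max 50 uM.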

[20] = CCTE_Shafer_MEA_acute_LDH: CCTE's Lactate Dehydrogenase Assay for Cytotoxicity in the Neural Acute Assay, Shafer Lab (AID 2284086);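 note: active means LDH release rises above DMSO vehicle level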
How it was run: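 LDH absorbance at 490 nm in medium taken right after 40-min compound exposure; rat primary cortical neuron networks on MEA plates, days post-plating 13 or 15. Increase over DMSO baseline scored as cytotoxicity.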

## O=C(CCCCCCCCc1cccnc1)N1CCC(C=C(c2ccccc2)c2ccccc2)CC1
[1]
  outcome: inactive

## CC(C)c1cccc(C(C)C)c1N1C(=O)c2ccc(O)cc2C1=O
[2]
  AC50: active: 13.6 µM
[3]
  outcome: inactive
[4]
  outcome: inactive
[5]
  AC50: active: 41.1 µM
[6]
  AC50: active: 4.05 µM and active: 11.8 µM
[7]
  AC50: active: 20.7 µM
[8]
  AC50: active: 7.81 µM and active: 3.04 µM
[9]
  AC50: inconclusive: 5 µM
[10]
  AC50: inconclusive: 0.00943 µM
[11]
  AC50: inconclusive: 7.38 µM
[12]
  AC50: active: 10.3 µM and active: 72.7 µM
[13]
  AC50: active: 85.8 µM
[14]
  AC50: active: 17.4 µM and active: 53.1 µM
[15]
  AC50: active: 10.7 µM and active: 50 µM
[16]
  AC50: inconclusive: 11 nM and active: 11.7 µM
[17]
  AC50: inconclusive: 7.57 µM and inconclusive: 106 nM
[18]
  AC50: active: 5.98 µM and active: 22.1 µM

## CC/C=C\C#N
[19]
  AC50: inconclusive: 25 µM

## Cc1ccc(C)c(O)c1C
[20]
  AC50: inconclusive: 20 µM

## CCCCCCCCCCCCCCCS(=O)(=O)Oc1ccccc1
[20]
  AC50: inconclusive: 10 µM

## Nc1ccc2c(c1)C(=O)c1ccccc1C2=O
[19]
  AC50: inconclusive: 25 µM

## CCCCCCCCCC
[2]
  AC50: active: 6.55 µM
[4]
  AC50: inconclusive: 25 µM
[1]
  AC50: inconclusive: 6.03 µM
[5]
  AC50: inconclusive: 25 µM
[6]
  outcome: inactive
[7]
  AC50: inconclusive: 0.0609 µM
[8]
  AC50: inconclusive: 1.11 µM
[9]
  AC50: inconclusive: 50 µM
[10]
  AC50: inconclusive: 10 µM
[11]
  AC50: inconclusive: 10 µM
[12]
  AC50: inconclusive: 0.724 nM
[13]
  outcome: inactive
[14]
  outcome: inactive
[15]
  AC50: inconclusive: 0.245 nM
[16]
  outcome: inactive
[17]
  outcome: inactive
[18]
  outcome: inactive

## COCCOCCOCCOC
[3]
  outcome: inactive
